Here are results for 4 molecules from paper doi:10.1101/2022.09.01.506096.

Chains of the proteins cited; added tags and fusions are not shown.
UniProt O60488: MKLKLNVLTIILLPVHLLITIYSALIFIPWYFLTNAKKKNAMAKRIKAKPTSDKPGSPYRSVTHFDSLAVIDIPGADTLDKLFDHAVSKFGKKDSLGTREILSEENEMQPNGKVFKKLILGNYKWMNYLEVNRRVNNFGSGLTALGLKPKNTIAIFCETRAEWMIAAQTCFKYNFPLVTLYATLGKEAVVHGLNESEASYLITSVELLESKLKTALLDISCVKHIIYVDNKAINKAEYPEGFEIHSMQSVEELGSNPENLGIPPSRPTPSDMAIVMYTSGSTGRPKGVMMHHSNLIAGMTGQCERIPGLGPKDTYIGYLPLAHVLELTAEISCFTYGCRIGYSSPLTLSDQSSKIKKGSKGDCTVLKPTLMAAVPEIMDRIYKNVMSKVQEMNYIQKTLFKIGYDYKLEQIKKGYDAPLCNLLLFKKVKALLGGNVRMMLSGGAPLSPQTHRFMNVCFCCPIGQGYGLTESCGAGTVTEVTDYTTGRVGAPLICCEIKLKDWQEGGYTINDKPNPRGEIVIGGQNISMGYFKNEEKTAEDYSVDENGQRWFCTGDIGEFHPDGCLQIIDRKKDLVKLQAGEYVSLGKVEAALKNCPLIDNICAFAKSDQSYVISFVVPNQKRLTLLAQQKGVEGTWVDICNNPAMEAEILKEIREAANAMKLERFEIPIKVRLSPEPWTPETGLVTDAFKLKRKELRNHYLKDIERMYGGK

These are yes or no findings as the source states them, for the method shown. For some of these results: In cells and extracts the contact can be indirect. Some binding calls cover weakened binding; strength is not graded here. For some of these results: Sequences can lack the tags named with a protein.

The target in experiment [1] is acyl-CoA synthetase long-chain family member 4 (ACSL4) (human (endogenous in OVCAR-8)) (UniProt O60488). In words: co-IP.
For experiment [2], the target named is T1, MBOAT7 MaMTH bait (membrane-bound O-acyltransferase family member 7) (UniProt Q96N66).
T1 sequence: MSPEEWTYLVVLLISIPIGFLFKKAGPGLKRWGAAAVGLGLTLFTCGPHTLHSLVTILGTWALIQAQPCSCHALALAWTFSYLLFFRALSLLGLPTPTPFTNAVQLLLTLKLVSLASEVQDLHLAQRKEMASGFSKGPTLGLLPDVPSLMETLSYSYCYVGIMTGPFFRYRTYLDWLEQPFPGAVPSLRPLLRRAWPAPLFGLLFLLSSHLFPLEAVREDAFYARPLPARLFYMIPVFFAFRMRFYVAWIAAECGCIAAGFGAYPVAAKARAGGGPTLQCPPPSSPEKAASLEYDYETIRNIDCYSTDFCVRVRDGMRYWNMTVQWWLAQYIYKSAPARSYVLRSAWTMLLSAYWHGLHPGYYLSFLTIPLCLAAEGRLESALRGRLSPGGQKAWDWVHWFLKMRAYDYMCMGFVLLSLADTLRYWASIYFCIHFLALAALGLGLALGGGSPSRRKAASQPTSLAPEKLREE
Briefly: two-hybrid.

Another experiment has as its target T2, MMD MaMTH bait (UniProt Q15546).
T2 sequence: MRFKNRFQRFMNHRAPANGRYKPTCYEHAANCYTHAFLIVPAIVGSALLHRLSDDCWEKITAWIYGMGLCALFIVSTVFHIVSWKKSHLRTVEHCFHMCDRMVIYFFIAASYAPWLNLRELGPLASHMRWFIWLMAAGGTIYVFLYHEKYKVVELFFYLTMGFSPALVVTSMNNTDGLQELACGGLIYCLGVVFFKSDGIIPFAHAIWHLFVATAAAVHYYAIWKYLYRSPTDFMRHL
In words: two-hybrid.

B1: calnexin (protein, UniProt P27824 21-592)
chain: HDGHDDDVIDIEDDLDDVIEEVEDSKPDTTAPPSSPKVTYKAPVPTGEVYFADSFDRGTLSGWILSKAKKDDTDDEIAKYDGKWEVEEMKESKLPGDKGLVLMSRAKHHAISAKLNKPFLFDTKPLIVQYEVNFQNGIECGGAYVKLLSKTPELNLDQFHDKTPYTIMFGPDKCGEDYKLHFIFRHKNPKTGIYEEKHAKRPDADLKTYFTDKKTHLYTLILNPDNSFEILVDQSVVNSGNLLNDMTPPVNPSREIEDPEDRKPEDWDERPKIPDPEAVKPDDWDEDAPAKIPDEEATKPEGWLDDEPEYVPDPDAEKPEDWDEDMDGEWEAPQIANPRCESAPGCGVWQRPVIDNPNYKGKWKPPMIDNPSYQGIWKPRKIPNPDFFEDLEPFRMTPFSAIGLELWSMTSDIFFDNFIICADRRIVDDWANDGWGLKKAADGAAEPGVVGQMIEAAEERPWLWVVYILTVALPVFLVILFCCSGKKQTSGMEYKKTDAPQPDVKEEEEEKEEEKDKGDEEEEGEEKLEEKQKSDAEEDGGTVSQEEEDRKPKAEEDEILNRSPRNRKPRRE
Consider B1, for which, in experiment [1], the binding result is “no binding”.

B2: HA-tagged monocyte-to-macrophage differentiation-related (MMD) protein (protein, UniProt Q15546 1-238)
chain: T2 sequence
B2: the binding result in experiment [1] is reported as “binds”.

B3: MMD MaMTH prey (protein, UniProt Q15546 1-238)
chain: T2 sequence
B3: the binding result in experiment [2] is given as “binds”.

B4: MBOAT7 MaMTH prey (membrane-bound O-acyltransferase family member 7) (enzyme, UniProt Q96N66 1-472)
chain: T1 sequence
In the case of B4, in the experiment with MMD MaMTH bait, the binding entry is on record as “binds”.
